The values below come from PMC11984844.

The chains behind the UniProt entries cited, without tags or fusion partners.
UniProt Q9Y297: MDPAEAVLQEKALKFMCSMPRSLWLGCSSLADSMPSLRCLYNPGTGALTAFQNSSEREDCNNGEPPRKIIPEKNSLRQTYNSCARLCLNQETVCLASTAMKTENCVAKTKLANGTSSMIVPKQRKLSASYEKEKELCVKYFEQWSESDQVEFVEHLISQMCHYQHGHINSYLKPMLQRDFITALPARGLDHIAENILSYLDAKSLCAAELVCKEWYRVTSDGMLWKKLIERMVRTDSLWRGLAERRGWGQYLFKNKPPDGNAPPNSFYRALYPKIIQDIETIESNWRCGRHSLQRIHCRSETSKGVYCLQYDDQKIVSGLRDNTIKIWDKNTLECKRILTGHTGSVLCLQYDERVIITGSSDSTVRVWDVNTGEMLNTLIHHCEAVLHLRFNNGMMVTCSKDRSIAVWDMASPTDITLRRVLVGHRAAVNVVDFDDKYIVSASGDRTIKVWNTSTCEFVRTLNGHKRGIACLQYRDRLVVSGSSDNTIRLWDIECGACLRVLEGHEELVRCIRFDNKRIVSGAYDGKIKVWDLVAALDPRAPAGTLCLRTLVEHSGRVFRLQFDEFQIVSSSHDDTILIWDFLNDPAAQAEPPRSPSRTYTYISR

Test [1] has as its target T1, Flag-eEF2K (eukaryotic elongation factor 2 kinase) (human) (UniProt O00418).
T1 sequence: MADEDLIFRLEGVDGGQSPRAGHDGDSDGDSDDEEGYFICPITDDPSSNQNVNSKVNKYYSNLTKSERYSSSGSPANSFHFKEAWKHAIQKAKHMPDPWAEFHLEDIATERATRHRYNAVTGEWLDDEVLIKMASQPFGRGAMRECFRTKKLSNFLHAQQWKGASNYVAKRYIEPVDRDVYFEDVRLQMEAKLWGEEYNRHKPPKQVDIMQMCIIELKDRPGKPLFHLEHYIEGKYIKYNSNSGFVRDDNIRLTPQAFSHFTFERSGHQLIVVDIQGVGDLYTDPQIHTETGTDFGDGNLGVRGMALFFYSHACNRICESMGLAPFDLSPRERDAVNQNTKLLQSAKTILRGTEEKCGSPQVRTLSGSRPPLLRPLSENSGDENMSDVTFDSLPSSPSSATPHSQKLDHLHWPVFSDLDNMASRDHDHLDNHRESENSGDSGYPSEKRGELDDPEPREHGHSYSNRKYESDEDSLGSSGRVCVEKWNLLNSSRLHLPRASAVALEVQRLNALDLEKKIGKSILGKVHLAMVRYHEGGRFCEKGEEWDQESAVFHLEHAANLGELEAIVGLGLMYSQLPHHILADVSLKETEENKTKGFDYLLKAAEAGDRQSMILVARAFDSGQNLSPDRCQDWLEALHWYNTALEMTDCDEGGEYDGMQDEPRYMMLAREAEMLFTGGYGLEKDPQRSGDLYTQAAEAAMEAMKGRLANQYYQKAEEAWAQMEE
Kind of test: co-IP; HEK293T cells transfected with Flag-eEF2K and HA-βTRCP, treated with different concentrations of C4, or with 0.4 µM C4 or 0.4 µM C1; immunoprecipitation with anti-Flag antibody, western blot with anti-HA. Background: Immunoblotting shows a protein as a band on a membrane.

In test [2] the target is T2, GST-eEF2K, purified recombinant (human) (UniProt O00418).
T2 sequence: T1 sequence
Briefly: pull-down; purified GST-eEF2K with HEK293T cell lysates expressing the full-length or different functional domains of HA-AURKA (the legend calls it immunoprecipitation); HA detected by western blot; only the target purified.

Test [3] concerns the target T2, GST-eEF2K, purified recombinant (human). Briefly: pull-down; lysate of HEK293T cells transfected with HA-AURKA for 48 h (legend: anti-HA immune complexes) incubated with purified GST or GST-eEF2K at 4 °C for 4 h; glutathione beads; HA detected by western blot; only the target purified.
Test [4] concerns the target T1, Flag-eEF2K (eukaryotic elongation factor 2 kinase) (human). Kind of test: co-IP; HEK293T cells co-transfected with Flag- and HA-tagged plasmids; immunoprecipitation with anti-Flag or anti-HA antibodies; RIPA lysis buffer (medium), protein A/G magnetic beads overnight at 4 °C; western blot.
Test [5] has as its target T3, eEF2K, endogenous in MDA-MB-231 cells (human (endogenous in MDA-MB-231)) (UniProt O00418).
T3 sequence: T1 sequence
Kind of test: co-IP; endogenous proteins of MDA-MB-231 cells immunoprecipitated with anti-AURKA or anti-eEF2K antibody; western blot.

These are yes or no findings as the source states them, for the method shown. In cells and extracts the contact can be indirect. Some entries that bind do so weakly or less than the wild type. For part of these data: Sequences can lack the tags named with a protein.

Take “HA-βTRCP (beta-transducin repeats-containing protein) (from UniProt Q9Y297 1-605)”: in test [1], the binding entry is recorded as “binds”.

B1: HA-AURKA central catalytic domain (aa 127–384) (domain or fragment, UniProt O14965 127-384)
chain: QWALEDFEIGRPLGKGKFGNVYLAREKQSKFILALKVLFKAQLEKAGVEHQLRREVEIQSHLRHPNILRLYGYFHDATRVYLILEYAPLGTVYRELQKLSKFDEQRTATYITELANALSYCHSKRVIHRDIKPENLLLGSAGELKIADFGWSVHAPSSRRTTLCGTLDYLPPEMIEGRMHDEKVDLWSLGVLCYEFLVGKPPFEANTYQETYKRISRVEFTFPDFVTEGARDLISRLLKHNPSQRPMLREVLEHPWIT
As for B1, the binding result in test [2] is given as “binds”.

B2: HA-AURKA terminal regulatory domain (aa 384–403) (domain or fragment, UniProt O14965 384-403)
chain: TANSSKPSNCQNKESASKQS
Take B2: the binding result in test [2] is “binds”.

B3: HA-AURKA (aurora kinase A), full length, wild type (enzyme, UniProt O14965 1-403)
chain: MDRSKENCISGPVKATAPVGGPKRVLVTQQFPCQNPLPVNSGQAQRVLCPSNSSQRIPLQAQKLVSSHKPVQNQKQKQLQATSVPHPVSRPLNNTQKSKQPLPSAPENNPEEELASKQKNEESKKRQWALEDFEIGRPLGKGKFGNVYLAREKQSKFILALKVLFKAQLEKAGVEHQLRREVEIQSHLRHPNILRLYGYFHDATRVYLILEYAPLGTVYRELQKLSKFDEQRTATYITELANALSYCHSKRVIHRDIKPENLLLGSAGELKIADFGWSVHAPSSRRTTLCGTLDYLPPEMIEGRMHDEKVDLWSLGVLCYEFLVGKPPFEANTYQETYKRISRVEFTFPDFVTEGARDLISRLLKHNPSQRPMLREVLEHPWITANSSKPSNCQNKESASKQS
Take B3: the binding entry in test [3] and in test [4] was “binds” throughout.

B4: AURKA, endogenous in MDA-MB-231 cells (enzyme, UniProt O14965 1-403)
chain: B3 chain
For the molecule B4, in test [5], the binding entry is “binds”.
